Laboratory results from paper PMC8616561.
These are yes or no findings as the source states them, for the method shown. Binding seen in cells or lysates may run through a third protein. Some results given as binding are weak or reduced against the parent protein; the word gives no strength. Where a sequence is shown, tags or fusion partners need not be part of it. Blank lines part the entries; values can stand above or below the molecule they belong to.

The chains behind the UniProt entries cited, without tags or fusion partners.
UniProt Q923J1: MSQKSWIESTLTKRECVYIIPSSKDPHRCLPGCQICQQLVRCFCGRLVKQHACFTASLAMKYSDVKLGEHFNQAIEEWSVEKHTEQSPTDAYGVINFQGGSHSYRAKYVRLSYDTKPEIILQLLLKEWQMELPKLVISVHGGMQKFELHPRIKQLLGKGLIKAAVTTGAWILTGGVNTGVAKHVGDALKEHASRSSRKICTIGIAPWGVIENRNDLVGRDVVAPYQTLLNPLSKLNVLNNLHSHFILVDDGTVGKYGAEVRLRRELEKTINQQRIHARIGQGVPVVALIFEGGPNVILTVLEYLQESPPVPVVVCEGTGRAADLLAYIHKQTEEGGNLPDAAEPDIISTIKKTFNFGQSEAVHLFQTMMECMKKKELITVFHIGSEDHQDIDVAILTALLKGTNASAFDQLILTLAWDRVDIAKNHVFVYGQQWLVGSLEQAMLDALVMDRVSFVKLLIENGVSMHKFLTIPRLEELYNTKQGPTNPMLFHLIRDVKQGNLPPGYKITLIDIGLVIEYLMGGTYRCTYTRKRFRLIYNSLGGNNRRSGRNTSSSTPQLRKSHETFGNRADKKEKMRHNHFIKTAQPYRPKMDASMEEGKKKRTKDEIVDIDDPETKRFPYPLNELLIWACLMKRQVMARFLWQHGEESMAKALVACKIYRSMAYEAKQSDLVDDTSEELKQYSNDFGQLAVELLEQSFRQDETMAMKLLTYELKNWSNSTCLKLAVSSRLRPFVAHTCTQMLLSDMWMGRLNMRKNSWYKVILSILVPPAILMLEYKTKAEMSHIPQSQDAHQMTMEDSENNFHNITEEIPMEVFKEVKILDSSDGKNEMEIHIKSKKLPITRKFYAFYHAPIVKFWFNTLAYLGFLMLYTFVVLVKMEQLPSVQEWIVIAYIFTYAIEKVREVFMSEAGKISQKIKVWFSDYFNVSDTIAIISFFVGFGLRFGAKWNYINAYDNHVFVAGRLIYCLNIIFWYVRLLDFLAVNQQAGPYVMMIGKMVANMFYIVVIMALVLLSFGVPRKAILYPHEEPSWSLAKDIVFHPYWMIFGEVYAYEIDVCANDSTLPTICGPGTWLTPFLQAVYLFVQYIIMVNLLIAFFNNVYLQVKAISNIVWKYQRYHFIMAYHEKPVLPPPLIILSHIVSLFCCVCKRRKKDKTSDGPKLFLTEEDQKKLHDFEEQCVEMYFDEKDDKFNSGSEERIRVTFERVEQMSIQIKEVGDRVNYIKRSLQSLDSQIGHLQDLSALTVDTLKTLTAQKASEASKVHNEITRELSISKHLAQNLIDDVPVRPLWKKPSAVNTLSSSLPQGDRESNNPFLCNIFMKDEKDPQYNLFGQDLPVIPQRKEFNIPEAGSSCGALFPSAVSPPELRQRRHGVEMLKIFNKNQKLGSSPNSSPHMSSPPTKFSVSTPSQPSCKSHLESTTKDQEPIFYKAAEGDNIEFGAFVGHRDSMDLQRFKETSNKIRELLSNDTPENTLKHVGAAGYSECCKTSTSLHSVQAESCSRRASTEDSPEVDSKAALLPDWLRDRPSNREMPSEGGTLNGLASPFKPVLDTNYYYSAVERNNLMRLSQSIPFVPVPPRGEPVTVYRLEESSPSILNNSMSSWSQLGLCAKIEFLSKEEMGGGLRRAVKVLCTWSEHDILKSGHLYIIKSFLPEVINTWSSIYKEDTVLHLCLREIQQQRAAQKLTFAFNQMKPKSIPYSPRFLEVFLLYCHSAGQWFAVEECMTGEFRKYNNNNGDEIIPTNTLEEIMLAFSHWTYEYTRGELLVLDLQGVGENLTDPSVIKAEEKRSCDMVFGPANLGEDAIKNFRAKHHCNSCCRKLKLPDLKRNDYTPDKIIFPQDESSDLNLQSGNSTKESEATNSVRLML
UniProt Q0GA42: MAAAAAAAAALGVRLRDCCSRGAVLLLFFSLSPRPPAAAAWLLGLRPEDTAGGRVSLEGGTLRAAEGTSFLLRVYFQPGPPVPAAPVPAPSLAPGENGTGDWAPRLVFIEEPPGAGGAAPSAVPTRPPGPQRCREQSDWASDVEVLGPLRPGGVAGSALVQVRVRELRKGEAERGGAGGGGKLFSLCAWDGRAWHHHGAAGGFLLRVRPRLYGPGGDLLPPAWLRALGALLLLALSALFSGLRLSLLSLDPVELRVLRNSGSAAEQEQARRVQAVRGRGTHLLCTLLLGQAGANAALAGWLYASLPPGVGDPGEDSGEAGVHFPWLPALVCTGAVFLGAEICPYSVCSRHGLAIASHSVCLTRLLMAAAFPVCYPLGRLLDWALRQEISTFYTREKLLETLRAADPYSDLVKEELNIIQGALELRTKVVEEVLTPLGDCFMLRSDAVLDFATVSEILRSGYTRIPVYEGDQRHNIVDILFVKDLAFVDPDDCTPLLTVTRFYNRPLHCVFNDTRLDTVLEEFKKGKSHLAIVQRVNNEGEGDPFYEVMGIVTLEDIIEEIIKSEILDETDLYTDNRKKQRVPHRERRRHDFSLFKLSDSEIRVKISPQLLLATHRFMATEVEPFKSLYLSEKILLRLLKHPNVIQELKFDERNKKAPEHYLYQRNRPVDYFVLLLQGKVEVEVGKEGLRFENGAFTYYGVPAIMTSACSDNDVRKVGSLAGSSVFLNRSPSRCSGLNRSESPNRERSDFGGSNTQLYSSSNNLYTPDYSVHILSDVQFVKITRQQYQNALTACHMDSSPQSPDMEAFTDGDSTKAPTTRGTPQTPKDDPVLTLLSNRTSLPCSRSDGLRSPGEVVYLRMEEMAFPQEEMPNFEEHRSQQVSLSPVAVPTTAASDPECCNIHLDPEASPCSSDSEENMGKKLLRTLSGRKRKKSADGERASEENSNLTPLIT

Key:
[1] = target: C-terminally HA-tagged mouse TRPM7 (mouse) (UniProt Q923J1); assay: co-IP; anti-HA AP from CL-47 solubilised membrane fractions of TRPM7-/- HEK293 cells co-expressing TRPM7-HA, ARL15-Flag and CNNM-Flag (all three present); Western blot with anti-Flag and anti-HA
[2] = target: C-terminally HA-tagged mouse TRPM7 (mouse) (UniProt Q923J1); assay: co-IP; anti-HA AP from CL-47 solubilised membrane fractions of TRPM7-/- HEK293 cells co-expressing TRPM7-HA with ARL15-Flag alone or CNNM-Flag alone; Western blot with anti-Flag and anti-HA

binding [1]: binds
binding [2]: binds
B2: Myc-Flag-tagged mouse CNNM4 (protein, UniProt Q69ZF7 1-771)
chain: MAPGGGGGRRDGWPARGRLLLAALLLLWTRAASGQSSPQQSVILGMRLASCNKSCGMNPDGIIFVSEGSTVNLRLYGHSLGDISSNLISFTEVDDAEAVHNSTNCLELTKDLVVQRLVNVSRGNTSGMLVVITKFLRRSENMKLYALCTRPRADGPWTRWTDKDSLLFMVEEHGRFLPLWLHILLVMVLLVLSGIFSGLNLGLMALDPMELRIVQNCGTEKERKYARKIEPIRRKGNYLLCSLLLGNVLVNTSLTILLDNLIGSGIMAVASSTIGIVIFGEILPQALCSRHGLAVGANTIVLTKVFMLLTFPLSFPISKLLDFVLGQEIRTVYNREKLMEMLKVTEPYNDLVKEELNMIQGALELRTKTVEDIMTQLHDCFMIRSDAILDFNTMSEIMESGYTRIPVFEDEQSNIVDILYVKDLAFVDPDDCTPLKTITRFYNHPVHFVFHDTKLDAMLEEFKKGKSHLAIVQKVNNEGEGDPFYEVLGLVTLEDVIEEIIKSEILDESDMYTDNRTRKRVSVKNKRDFSAFKDTDNELKVKISPQLLLAAHRFLATEVPQFSPSLMSEKILLRLLKYPDVIQELRFNEHNRYCVRHYLYTRNKPADCFVLILQGKVEVEAGKENMKFETGAFSYYGTMALSVAPPDRSPALPTPLSRSASLSYPDRNTDLTSTSLAGSNQFGSCILGQYVSDFSVRALTDLQYIKITRQQYQNGLMASRMDNSPQPTFDGCATCSENFMERPELPPVDETTTLLNERNSLLHRASEEETI

binding [1]: binds
binding [2]: binds
B3: Myc-Flag-tagged mouse CNNM3 (protein, UniProt Q32NY4 1-713)
chain: MAAAAAAVVGWLGWVLAAFCLGSTAGEAAPAPGAGLLNFCTEEDSAPGAGSLRGRAAPEATLCLRLFCSGLANSSWTWVAAEGAGCPEGGRATEPEEAAAPTGEWRALLRLRAEAGHPRSALLAVRVEPGGGAAEEAAPPWALGLGAAGLLALAAVARGLQLSALALAPAEVQVLRESGSEAERAAARRLEPARRWAGCALGALLLLASLAQAALAVLLYGAAGQRAVPAVLGCAGLVFLVGEVLPAAVSGRWALALAPRALGLSRLAVLLTLPVALPVGQLLELAARPGRLRERVLELARGGGDPYSDLSKGVLRSRTVEDVLTPLEDCFMLDSGTVLDFSVLASIMQSGHTRIPVYEEERSNIVDMLYLKDLAIVEPEDCTPLSTITRFYNHPLHFVFNDTKLDAVLEEFKRGKSHLAIVQKVNNEGEGDPFYEVLGLVTLEDVIEEIIKSEILDESEDYSDTKVRKKTVALGAPLKRKEEFSLFKVSDDEYKVKISPQLLLATQRFLSREVDVFSPLRVSEKVLLHLLKHPSVNQEVTFDESNRLAAHHYLYQRSQPVDYFILILQGRVEVEIGKEGLKFENGAFTYYGVSALTAPSSAHQSPVSSRQLIRHDVQPEPADGTRSCTYCPDYTVRALSDLQLIKVTRLQYLNALLATRAQSLPPSPENAELQAIPGSQTRLLGDKSRETAGSTNSRPSIPVEESPGRNPGV

The next lines start with the molecule.

Molecule: Myc-Flag-tagged mouse CNNM1 (from UniProt Q0GA42 1-951)
binding [1]: binds
binding [2]: binds

B1: Myc-Flag-tagged mouse ARL15 (protein, UniProt Q8BGR6 1-204)
chain: MSDLRITEAFLYMDYLCFRALCCKGPPPARPEYDLVCIGLTGSGKTSLLSELCSESPENVVSTTGFSIKAVPFQNAVLNVKELGGADNIRKYWSRYYQGSQGVIFVLDSASSEDDLETARNELHSALQHPQLCTLPFLILANHQDKPAARSVQEIKKYFELEPLARGKRWILQPCSLDDVDTLKDSFSQLINLLEEKDHEAVRM
binding [1]: binds
binding [2]: binds

B4: Myc-Flag-tagged mouse CNNM2 (protein, UniProt Q3TWN3 1-875)
chain: MIGCGACEPEVKMAGGQAAAALPTWKMAARRSLSARGRGVLQAAAGRLLPLLLLSCCWGAGGCTAAGENEETVIIGLRLEDTNDVSFMEGGALRVSERTRVKLRVYGQNINNETWSRIAFTEHERRRHTPSERGLGGPAPPEPDSGPQRCGIRTSDIIILPHIILNRRTSGIIEIEIKPLRKMEKSKSYYLCTSLSTPALGAGGSGSASGTVGGKGGAGVAGLPPPPWAETTWIYHDGEDTKMIVGEEKKFLLPFWLQVIFISLLLCLSGMFSGLNLGLMALDPMELRIVQNCGTEKEKNYAKRIEPVRRQGNYLLCSLLLGNVLVNTTLTILLDDIAGSGLVAVVVSTIGIVIFGEIVPQAICSRHGLAVGANTIFLTKFFMMMTFPASYPVSKLLDCVLGQEIGTVYNREKLLEMLRVTDPYNDLVKEELNIIQGALELRTKTVEDVMTPLRDCFMITGEAILDFNTMSEIMESGYTRIPVFEGERSNIVDLLFVKDLAFVDPDDCTPLKTITKFYNHPLHFVFNDTKLDAMLEEFKKGKSHLAIVQRVNNEGEGDPFYEVLGIVTLEDVIEEIIKSEILDETDLYTDNRTKKKVAHRERKQDFSAFKQTDSEMKVKISPQLLLAMHRFLATEVEAFSPSQMSEKILLRLLKHPNVIQELKYDEKNKKAPECYLYQRNKPVDYFVLILQGKVEVEAGKEGMKFEASAFSYYGVMALTASPVPLSLSRTFVVSRTEVLAAGSPGENKSPPRPCGLNHSDSLSRSDRIDAMTPTLGSSNNQLSSSFLQVYIPDYSVRALSDLQFVKISRQQYQNALMASRMDKTPQSSDSENTKIELTLTELHDGLPDETANLLNEQNCVSHNKANHSLHSEGAI
binding [1]: binds
binding [2]: binds
